PubChem BioAssay AID1671195 | Yale University, 2021
Assay: 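Knockdowns that increase or decrease uptake of fluorescent LDL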 (primary screen). Cell system: human Huh7 hepatoma cells. Reagents: siRNA pool against human genes, 18 nM. Duration: about 2 to 2.5 days of knockdown, then 8 h LDL uptake. Challenge: DiI-labelled LDL at 30 µg/ml for 8 h, in lipoprotein-deficient serum medium. Read-out: 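Fluorescent LDL signal imaged in cells, scaled to the plate median, robust z-score for each replicate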. Scale: robust z-score: higher = more LDL uptake after knockdown. Rule for the call: 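Active when two or more replicates show a robust z-score above 2 or below -2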.
The whole screen tested about 22,000 reagents; shown is a part drawn at random. Of all reagents, about 1,510 (6.9%) got an active call. 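Active includes knockdowns raising or lowering LDL uptake; positive z-scores mean more uptake, negative mean less.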 A number with no mark means an inactive call.

The opening 2 entries as a preview:
| target gene | PubChem SID | robust z-score, replicate 1 | robust z-score, replicate 2 | robust z-score, replicate 3 |
| --- | --- | --- | --- | --- |
| RPL23 (GeneID 9349) | SID442899887 | -0.718 | -1.09 | -0.238 |
| SLC66A1LP (GeneID 152078) | SID442895688 | -0.386 | 0.127 | -0.327 |

Main list, from the first entry:
| target gene | PubChem SID | robust z-score, replicate 1 | robust z-score, replicate 2 | robust z-score, replicate 3 |
| --- | --- | --- | --- | --- |
| RPL23 (GeneID 9349) | SID442899887 | -0.718 | -1.09 | -0.238 |
| SLC66A1LP (GeneID 152078) | SID442895688 | -0.386 | 0.127 | -0.327 |
| DYNLT2 (GeneID 6991) | SID442892944 | 0.329 | 0.074 | -0.0848 |
| PCDHB2 (GeneID 56133) | SID442891909 | 0.0576 | 0.384 | 0.251 |
| LOC441593 (retired record) (GeneID 441593) | SID442893210 | 0.699 | -0.469 | -0.00116 |
| OR5B2 (GeneID 390190) | SID442884023 | 2.24 (active) | 2.26 | 1.66 |
| APBB2 (GeneID 323) | SID442885332 | 1.21 | 0.644 | 2.82 |
| MSMO1 (GeneID 6307) | SID442900596 | -0.977 | 0.0658 | -1.43 |
| CST1 (GeneID 1469) | SID442897024 | -0.0805 | -0.282 | -0.653 |
| STOML3 (GeneID 161003) | SID442898667 | -0.232 | -0.731 | -0.611 |
| MZF1 (GeneID 7593) | SID442885386 | 1.23 | 1.35 | 2.01 |
| LOC284409 (retired record) (GeneID 284409) | SID442888496 | 0.449 | 0.669 | 1.01 |
| FASTKD4 (GeneID 9238) | SID442900667 | -0.973 | -0.544 | -0.856 |
| KCTD10 (GeneID 83892) | SID442891915 | 0.00509 | 1.05 | -0.365 |
| LINC01343 (GeneID 339442) | SID442887684 | 0.98 | 0.954 | 0.655 |
| MCUB (GeneID 55013) | SID442890764 | 0.404 | 1.85 | -1.14 |
| LOC440582 (retired record) (GeneID 440582) | SID442885510 | 1.98 | 1.18 | 1.29 |
| PRKN (GeneID 5071) | SID442884155 | 1.22 (active) | 2.31 | 2.08 |
| TTC41P (GeneID 253724) | SID442896914 | -0.495 | -0.214 | -0.269 |
| PHKA1 (GeneID 5255) | SID442895859 | -0.424 | -0.43 | 0.213 |
| NQO2 (GeneID 4835) | SID442901985 | -1.37 | -0.887 | -0.727 |
| LOC441023 (retired record) (GeneID 441023) | SID442890031 | 0.296 | 0.909 | 0.215 |
| LINC00895 (GeneID 150185) | SID442902852 | -1.19 | -1.26 | -1.04 |
| FARSA (GeneID 2193) | SID442890629 | 0.295 | 0.596 | 0.279 |
| NDUFS6 (GeneID 4726) | SID442894380 | 0.242 | -0.364 | -0.0513 |
| VTI1B (GeneID 10490) | SID442891011 | 0.448 | 0.814 | -0.238 |
| PIK3C2A (GeneID 5286) | SID442898252 | -0.749 | 0.104 | -0.79 |
| MRPL21 (GeneID 219927) | SID442901879 | -0.888 | -1.01 | -1.03 |
